Values quoted from earlier work in patent US20160331754A1, “THERAPIES FOR TREATING CANCERS” (GILEAD SCIENCES, INC., priority 2014, published 2016).
At least one structure is not confirmed: it was looked up by name or label, or the drawing left a doubt.

Test system: WIL2-S
Conditions: previous reports; cited from earlier work

SMILES: C=CC(=O)N1CCC[C@@H](n2nc(-c3ccc(Oc4ccccc4)cc3)c3c(N)ncnc32)C1 [ibrutinib]
- inhibition of rituximab-mediated vs obinutuzumab-mediated ADCC: caused increased inhibition to rituximab-mediated ADCC
